Consider 8 molecules from patent US20220074941A1, “HSP90 COMBINATION THERAPY” (Sloan-Kettering Institute for Cancer Research, priority 2011, published 2022).

This series deals with Hsp90 complexes in K562 cell extract. Briefly: Nano-LC-MS/MS of PU-beads pull-downs. In kind it is binding. The conditions noted are these: for Matched Peptides by Fraction JA05: Run1, gel size cut 60-80; for MAXIMUM matched peptides: maximum over fractions JA01-JA14; for Total fmol: protein isolated in PU-beads pull-downs, Waters Xevo QTof MS; for Matched Peptides by Fraction JA12: Run2, gel size cut 60-80; for Matched Peptides by Fraction JA07: Run1, gel size cut <40; for Matched Peptides by Fraction JA14: Run2, gel size cut <40. On the procedure: Protein cargo isolated from cell lysate with PU-beads or control-beads was subjected to proteomic analysis by nano liquid chromatography coupled to tandem mass spectrometry (nano LC-MS/MS). Initial protein identification was performed using the Mascot search engine, and was further evaluated using Scaffold Proteome Software (Tables 5a-d).
Lysates prepared as mentioned above were first pre-cleaned by incubation with control beads overnight at 4° C. […] Beads were washed with lysis buffer, proteins eluted by boiling in 2% SDS, separated on a denaturing gel and Coomassie stained according to manufacturer's procedure (Biorad). […] Analyses of the batch purified pools were done using a QSTAR-Elite hybrid quadrupole time-of-flight mass spectrometer (QTof MS) (AB/MDS Sciex), equipped with a nano spray ion source. Peptide mixtures (in 20 μL) are loaded onto a trapping guard column (0.3×5-mm PepMap C18 100 cartridge from LC Packings) using an Eksigent nano MDLC system (Eksigent Technologies, Inc) at a flow rate of 20 μL/min. […] Electrospray ionization (ESI) needle voltage was set at about 1800 V. The mass analyzer is operated in automatic, data-dependent MS/MS acquisition mode, with the threshold set to 10 counts per second of doubly or triply charged precursor ions selected for fragmentation scans. Survey scans of 0.25 sec are recorded from 400 to 1800 amu; up to 3 MS/MS scans are then collected sequentially for the selected precursor ions, recording from 100 to 1800 amu. The collision energy is automatically adjusted in accordance with the m/z value of the precursor ions selected for MS/MS. Selected precursor ions are excluded from repeated selection for 60 sec after the end of the corresponding fragmentation duty cycle. […] One missed tryptic cleavage site was allowed, precursor ion mass tolerance=0.4 Da fragment ion mass tolerance=0.4 Da, protein modifications were allowed for Met-oxide, Cys-acrylamide and N-terminal acetylation. MudPit scoring was typically applied with ‘require bold red’ activated, and using significance threshold score p<0.05. Unique peptide counts (or ‘spectral counts’) and percent sequence coverages for all identified proteins were exported to Scaffold Proteome Software (version 2_06_01, www.proteomesoftware.com) for further bioinformatic analysis (Table 5a). Using output from Mascot, Scaffold validates, organizes, and interprets mass spectrometry data, allowing more easily to manage large amounts of data, to compare samples, and to search for protein modifications.

B1: Peptidyl-prolyl cis-trans isomerase FKBP8 (protein, UniProt Q14318 1-412, looked up)
Peptidyl-prolyl cis-trans …: MASCAEPSEPSAPLPAGVPPLEDFEVLDGVEDAEGEEEEEEEEEEEDDLSELPPLEDMGQPPAEEAEQPGALAREFLAAMEPEPAPAPAPEEWLDILGNGLLRKKTLVPGPPGSSRPVKGQVVTVHLQTSLENGTRVQEEPELVFTLGDCDVIQALDLSVPLMDVGETAMVTADSKYCYGPQGRSPYIPPHAALCLEVTLKTAVDGPDLEMLTGQERVALANRKRECGNAHYQRADFVLAANSYDLAIKAITSSAKVDMTFEEEAQLLQLKVKCLNNLAASQLKLDHYRAALRSCSLVLEHQPDNIKALFRKGKVLAQQGEYSEAIPILRAALKLEPSNKTIHAELSKLVKKHAAQRSTETALYRKMLGNPSRLPAKCPGKGAWSIPWKWLFGATAVALGGVALSVVIAARN
Regarding B1, the Total fmol came to 1.5935 fmol. Besides, under “PU-beads pull-down”, the “Matched Peptides by Fraction JA05” value is reported as 5 and the MAXIMUM matched peptides amounted to 5.

B2: DnaJ homolog subfamily C member 7 (protein, UniProt Q99615 2-494, looked up)
DnaJ homolog subfamily C …: AAAAECDVVMAATEPELLDDQEAKREAETFKEQGNAYYAKKDYNEAYNYYTKAIDMCPKNASYYGNRAATLMMLGRFREALGDAQQSVRLDDSFVRGHLREGKCHLSLGNAMAACRSFQRALELDHKNAQAQQEFKNANAVMEYEKIAETDFEKRDFRKVVFCMDRALEFAPACHRFKILKAECLAMLGRYPEAQSVASDILRMDSTNADALYVRGLCLYYEDCIEKAVQFFVQALRMAPDHEKACIACRNAKALKAKKEDGNKAFKEGNYKLAYELYTEALGIDPNNIKTNAKLYCNRGTVNSKLRKLDDAIEDCTNAVKLDDTYIKAYLRRAQCYMDTEQYEEAVRDYEKVYQTEKTKEHKQLLKNAQLELKKSKRKDYYKILGVDKNASEDEIKKAYRKRALMHHPDRHSGASAEVQKEEEKKFKEVGEAFTILSDPKKKTRYDSGQDLDEEGMNMGDFDPNNIFKAFFGGPGGFSFEASGPGNFFFQFG
The molecule B2 had a Total fmol of 19.0068 fmol. For the same molecule, for the setting “PU-beads pull-down”, the “Matched Peptides by Fraction JA05” value worked out at 14, the “Matched Peptides by Fraction JA12” value was 24 and the MAXIMUM matched peptides is 24.

B3: Peptidyl-prolyl cis-trans isomerase-like 2 (protein, UniProt Q13356 1-520, looked up)
RING-type E3 …: MGKRQHQKDKMYITCAEYTHFYGGKKPDLPQTNFRRLPFDHCSLSLQPFVYPVCTPDGIVFDLLNIVPWLKKYGTNPSNGEKLDGRSLIKLNFSKNSEGKYHCPVLFTVFTNNTHIVAVRTTGNVYAYEAVEQLNIKAKNFRDLLTDEPFSRQDIITLQDPTNLDKFNVSNFYHVKNNMKIIDPDEEKAKQDPSYYLKNTNAETRETLQELYKEFKGDEILAATMKAPEKKKVDKLNAAHYSTGKVSASFTSTAMVPETTHEAAAIDEDVLRYQFVKKKGYVRLHTNKGDLNLELHCDLTPKTCENFIRLCKKHYYDGTIFHRSIRNFVIQGGDPTGTGTGGESYWGKPFKDEFRPNLSHTGRGILSMANSGPNSNRSQFFITFRSCAYLDKKHTIFGRVVGGFDVLTAMENVESDPKTDRPKEEIRIDATTVFVDPYEEADAQIAQERKTQLKVAPETKVKSSQPQAGSQGPQTFRQGVGKYINPAATKRAAEEEPSTSATVPMSKKKPSRGFGDFSSW
The molecule B3 came in with a Total fmol of 6.0454 fmol. Also, under “PU-beads pull-down”, the “Matched Peptides by Fraction JA05” value was found to be 11, the “Matched Peptides by Fraction JA12” value is given as 21 and the MAXIMUM matched peptides is recorded as 21.

B4: Peptidyl-prolyl cis-trans isomerase FKBP4 (protein, UniProt Q02790 1-459, looked up)
Peptidyl-prolyl cis-trans …: MTAEEMKATESGAQSAPLPMEGVDISPKQDEGVLKVIKREGTGTEMPMIGDRVFVHYTGWLLDGTKFDSSLDRKDKFSFDLGKGEVIKAWDIAIATMKVGEVCHITCKPEYAYGSAGSPPKIPPNATLVFEVELFEFKGEDLTEEEDGGIIRRIQTRGEGYAKPNEGAIVEVALEGYYKDKLFDQRELRFEIGEGENLDLPYGLERAIQRMEKGEHSIVYLKPSYAFGSVGKEKFQIPPNAELKYELHLKSFEKAKESWEMNSEEKLEQSTIVKERGTVYFKEGKYKQALLQYKKIVSWLEYESSFSNEEAQKAQALRLASHLNLAMCHLKLQAFSAAIESCNKALELDSNNEKGLFRRGEAHLAVNDFELARADFQKVLQLYPNNKAAKTQLAVCQQRIRRQLAREKKLYANMFERLAEEENKAKAEASSGDHPTDTEMKEEQKSNTAGSQSQVETEA
With B4, the Total fmol was 58.4334 fmol. Besides, for the setting “PU-beads pull-down”, the “Matched Peptides by Fraction JA05” value worked out at 37, the “Matched Peptides by Fraction JA12” value was found to be 50 and the MAXIMUM matched peptides was found to be 50.

B5: Heat shock 70 kDa protein 4 (protein, UniProt P34932 1-840, looked up)
Heat shock 70 kDa protein 4: MSVVGIDLGFQSCYVAVARAGGIETIANEYSDRCTPACISFGPKNRSIGAAAKSQVISNAKNTVQGFKRFHGRAFSDPFVEAEKSNLAYDIVQLPTGLTGIKVTYMEEERNFTTEQVTAMLLSKLKETAESVLKKPVVDCVVSVPCFYTDAERRSVMDATQIAGLNCLRLMNETTAVALAYGIYKQDLPALEEKPRNVVFVDMGHSAYQVSVCAFNRGKLKVLATAFDTTLGGRKFDEVLVNHFCEEFGKKYKLDIKSKIRALLRLSQECEKLKKLMSANASDLPLSIECFMNDVDVSGTMNRGKFLEMCNDLLARVEPPLRSVLEQTKLKKEDIYAVEIVGGATRIPAVKEKISKFFGKELSTTLNADEAVTRGCALQCAILSPAFKVREFSITDVVPYPISLRWNSPAEEGSSDCEVFSKNHAAPFSKVLTFYRKEPFTLEAYYSSPQDLPYPDPAIAQFSVQKVTPQSDGSSSKVKVKVRVNVHGIFSVSSASLVEVHKSEENEEPMETDQNAKEEEKMQVDQEEPHVEEQQQQTPAENKAESEEMETSQAGSKDKKMDQPPQAKKAKVKTSTVDLPIENQLLWQIDREMLNLYIENEGKMIMQDKLEKERNDAKNAVEEYVYEMRDKLSGEYEKFVSEDDRNSFTLKLEDTENWLYEDGEDQPKQVYVDKLAELKNLGQPIKIRFQESEERPKLFEELGKQIQQYMKIISSFKNKEDQYDHLDAADMTKVEKSTNEAMEWMNNKLNLQNKQSLTMDPVVKSKEIEAKIKELTSTCSPIISKPKPKVEPPKEEQKNAEQNGPVDGQGDNPGPQAAEQGTDTAVPSDSDKKLPEMDID
For the molecule B5, the Total fmol worked out at 5.9277 fmol. In addition, for the setting “PU-beads pull-down, Run1, gel size cut 110-150”, the “Matched Peptides by Fraction JA03” value is 9. Besides, the “Matched Peptides by Fraction JA10” value (PU-beads pull-down, Run2, gel size cut 110-150) is 17. The molecule further yielded an MAXIMUM matched peptides (PU-beads pull-down) of 17.

B6: DnaJ homolog subfamily C member 9 (protein, UniProt Q8WXX5 1-260, looked up)
DnaJ homolog subfamily C …: MGLLDLCEEVFGTADLYRVLGVRREASDGEVRRGYHKVSLQVHPDRVGEGDKEDATRRFQILGKVYSVLSDREQRAVYDEQGTVDEDSPVLTQDRDWEAYWRLLFKKISLEDIQAFEKTYKGSEEELADIKQAYLDFKGDMDQIMESVLCVQYTEEPRIRNIIQQAIDAGEVPSYNAFVKESKQKMNARKRRAQEEAKEAEMSRKELGLDEGVDSLKAAIQSRQKDRQKEMDNFLAQMEAKYCKSSKGGGKKSALKKEKK
The molecule B6 gave a Total fmol of 4.9413 fmol. Under “PU-beads pull-down”, the “Matched Peptides by Fraction JA07” value stood at 3, the “Matched Peptides by Fraction JA14” value came out at 4 and the MAXIMUM matched peptides stood at 4.

B7: DnaJ homolog subfamily C member 8 (protein, UniProt O75937 2-253, looked up)
DnaJ homolog subfamily C …: AASGESGTSGGGGSTEEAFMTFYSEVKQIEKRDSVLTSKNQIERLTRPGSSYFNLNPFEVLQIDPEVTDEEIKKRFRQLSILVHPDKNQDDADRAQKAFEAVDKAYKLLLDQEQKKRALDVIQAGKEYVEHTVKERKKQLKKEGKPTIVEEDDPELFKQAVYKQTMKLFAELEIKRKEREAKEMHERKRQREEEIEAQEKAKREREWQKNFEESRDGRVDSWRNFQANTKGKKEKKNRTFLRPPKVKMEQRE
Take B7: the Total fmol came to 6.8808 fmol. For the setting “PU-beads pull-down”, the “Matched Peptides by Fraction JA07” value stood at 5, the “Matched Peptides by Fraction JA14” value is on record as 6 and the MAXIMUM matched peptides is on record as 6.

B8: DnaJ homolog subfamily B member 11 (protein, UniProt Q9UBS4 23-358, looked up)
DnaJ homolog subfamily B …: GRDFYKILGVPRSASIKDIKKAYRKLALQLHPDRNPDDPQAQEKFQDLGAAYEVLSDSEKRKQYDTYGEEGLKDGHQSSHGDIFSHFFGDFGFMFGGTPRQQDRNIPRGSDIIVDLEVTLEEVYAGNFVEVVRNKPVARQAPGKRKCNCRQEMRTTQLGPGRFQMTQEVVCDECPNVKLVNEERTLEVEIEPGVRDGMEYPFIGEGEPHVDGEPGDLRFRIKVVKHPIFERRGDDLYTNVTISLVESLVGFEMDITHLDGHKVHISRDKITRPGAKLWKKGEGLPNFDNNNIKGSLIITFDVDFPKEQLTEEAREGIKQLLKQGSVQKVYNGLQGY
For B8, the Total fmol was 14.4606 fmol. Moreover, for the setting “PU-beads pull-down, Run1, gel size cut 40-60”, the “Matched Peptides by Fraction JA06” value came out at 5. The “Matched Peptides by Fraction JA13” value (PU-beads pull-down, Run2, gel size cut 40-60) is reported as 6. The molecule also came in with an MAXIMUM matched peptides (PU-beads pull-down) of 6.
